Measured values: article PMC3274522
These are yes or no findings as the source states them, for the method shown. In cells and extracts the contact can be indirect. Some entries that bind do so weakly or less than the wild type. Where a sequence is shown, tags or fusion partners need not be part of it.

Target: T1, phospho-inositide-dependent kinase 1 (PDK1), V5-tagged (UniProt O15530)
T1 sequence: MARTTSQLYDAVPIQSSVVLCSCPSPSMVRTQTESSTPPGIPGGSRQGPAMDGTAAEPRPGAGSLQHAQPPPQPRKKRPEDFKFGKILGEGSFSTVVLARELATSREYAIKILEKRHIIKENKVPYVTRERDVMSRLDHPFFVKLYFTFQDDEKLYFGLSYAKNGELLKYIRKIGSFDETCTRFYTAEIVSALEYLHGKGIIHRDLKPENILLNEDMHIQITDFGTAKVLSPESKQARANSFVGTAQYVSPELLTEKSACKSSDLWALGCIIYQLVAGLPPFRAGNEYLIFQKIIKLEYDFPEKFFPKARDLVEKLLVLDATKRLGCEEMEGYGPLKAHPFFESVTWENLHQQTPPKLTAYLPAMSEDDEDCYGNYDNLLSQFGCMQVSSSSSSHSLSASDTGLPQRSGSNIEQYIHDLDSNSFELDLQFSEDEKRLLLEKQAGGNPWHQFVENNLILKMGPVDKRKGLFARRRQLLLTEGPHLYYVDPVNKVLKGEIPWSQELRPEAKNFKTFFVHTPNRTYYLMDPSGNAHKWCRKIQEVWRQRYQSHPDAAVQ
Experiment: co-IP; HEK293T cells co-transfected with V5-PDK1 and MYC-USP4; PDK1 immunoprecipitated with anti-V5 beads; IP and input probed with anti-V5 and MYC antibodies; extracts in RIPA or ELB buffer

B1: Ubiquitin-Specific Protease 4 (USP4), MYC-tagged (enzyme, UniProt Q13107 1-963)
chain: MAEGGGCRERPDAETQKSELGPLMRTTLQRGAQWYLIDSRWFKQWKKYVGFDSWDMYNVGEHNLFPGPIDNSGLFSDPESQTLKEHLIDELDYVLVPTEAWNKLLNWYGCVEGQQPIVRKVVEHGLFVKHCKVEVYLLELKLCENSDPTNVLSCHFSKADTIATIEKEMRKLFNIPAERETRLWNKYMSNTYEQLSKLDNTVQDAGLYQGQVLVIEPQNEDGTWPRQTLQSKSSTAPSRNFTTSPKSSASPYSSVSASLIANGDSTSTCGMHSSGVSRGGSGFSASYNCQEPPSSHIQPGLCGLGNLGNTCFMNSALQCLSNTAPLTDYFLKDEYEAEINRDNPLGMKGEIAEAYAELIKQMWSGRDAHVAPRMFKTQVGRFAPQFSGYQQQDSQELLAFLLDGLHEDLNRVKKKPYLELKDANGRPDAVVAKEAWENHRLRNDSVIVDTFHGLFKSTLVCPECAKVSVTFDPFCYLTLPLPLKKDRVMEVFLVPADPHCRPTQYRVTVPLMGAVSDLCEALSRLSGIAAENMVVADVYNHRFHKIFQMDEGLNHIMPRDDIFVYEVCSTSVDGSECVTLPVYFRERKSRPSSTSSASALYGQPLLLSVPKHKLTLESLYQAVCDRISRYVKQPLPDEFGSSPLEPGACNGSRNSCEGEDEEEMEHQEEGKEQLSETEGSGEDEPGNDPSETTQKKIKGQPCPKRLFTFSLVNSYGTADINSLAADGKLLKLNSRSTLAMDWDSETRRLYYDEQESEAYEKHVSMLQPQKKKKTTVALRDCIELFTTMETLGEHDPWYCPNCKKHQQATKKFDLWSLPKILVVHLKRFSYNRYWRDKLDTVVEFPIRGLNMSEFVCNLSARPYVYDLIAVSNHYGAMGVGHYTAYAKNKLNGKWYYFDDSNVSLASEDQIVTKAAYVLFYQRRDDEFYKTPSLSSSGSSDGGTRPSSSQQGFGDDEACSMDTN
- binding: binds
